Measurements as given in PubChem BioAssay AID2685 (National Center for Advancing Translational Sciences (NCATS), 2010).
The list shows a part of the results. These are further read-outs of the screen, such as a control signal, another cell line or another target. No call is given for them. The list favours compounds with an active or inconclusive main result. The note in brackets gives the kind of curve behind each potency; many fits are weak.

Experiment: qHTS Assay for Lipid Storage Modulators in Drosophila S3 Cells;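 for cell number change: cells counted by Cell Tracker Red CMTPX staining in the red channel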
Details: BODIPY lipid droplet fluorescence, 18-24 h; for cell number change: measured here: cell count max response, cells fed with added oleic acid
Method in brief: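 Drosophila S3 cells loaded with oleic acid (400 uM, as added) and compounds at several concentrations; lipid droplets imaged by 488-nm laser-scanning cytometry, 500–530 nm intensity and object ratio to cell channel. Percent activity normalized to 20 uM Triacsin C.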

[1] = measured here: cell number channel AC50, cells fed with added oleic acid
[2] = measured here: lipid fluorescence (Fed channel) AC50, cells fed with added oleic acid

Structure (SMILES) | cell number change | AC50 [1] | AC50 [2]
CCN1C(=O)C(CC(=O)Nc2ccc(F)cc2)N(CCc2ccc(OC)cc2)C1=S (centres undefined) | -32.1% | 20.6 µM [falling, single point] | 18.4 µM [falling, single point]
O=C(CCC(=O)N(c1ccccc1)C(C(=O)NC1CCCC1)c1ccncc1)Nc1cccnc1 (centres undefined) | 37.2% | 18.4 µM [rising, single point] | 16.4 µM [rising, partial curve]
CCOC(=O)[C@H]1[C@H]2COc3ccccc3[C@@H]2N2C(=O)c3cc(OC)c(OC)cc3NC(=O)[C@@]12C | -52.3% | 29.1 µM [falling, partial curve, poor fit] | 36.6 µM [falling, partial curve, poor fit]
COc1ccc(OC)c(Nc2nc(N)c([N+](=O)[O-])c(NCc3ccccc3)n2)c1 |  | 0.146 µM [rising, full curve, poor fit] | 
O=C(COC(=O)c1c(F)cccc1F)NCc1ccc2c(c1)OCO2 | 20.3% |  | 0.259 µM [falling, full curve]
Fc1cccc(NC(=S)NNc2ccccc2)c1 | -5.56% |  | 29.1 µM [rising, single point]
Nc1nn(-c2cccc(F)n2)cc1-c1ccc(Cl)cc1 |  |  | 0.651 µM [rising, single point]
O=C(COC(=O)COc1ccc(Cl)cc1)Nc1ncc(Br)s1 | -34.9% | 20.6 µM [falling, single point] | 
Brc1cc2c(cc1C1Nc3ccccc3C3C=CCC31)OCO2 (centres undefined) | 4.89% |  | 0.651 µM [rising, partial curve]
NC(=O)CC(NC(=O)Cc1ccc(Br)cc1)c1ccc(NCCN2CCCCC2)c([N+](=O)[O-])c1 (centres undefined) | -2.27% |  | 0.651 µM [falling, partial curve, poor fit]
CCC(CC)Nc1ccc(C(CC(N)=O)NC(=O)Cc2cccc3ccccc23)cc1[N+](=O)[O-] (centres undefined) | 139% |  | 29.1 µM [falling, single point]
Cc1ccc(N2CC(C(=O)N3CCCCCC3)CC2=O)cc1 (centres undefined) | 13.9% |  | 
CCC(C)(C)c1ccc(OCCCC[n+]2ccc(C)cc2)c(C(C)(C)CC)c1 | -85% | 18.4 µM [falling, partial curve] | 16.4 µM [falling, partial curve]
Cc1nc2nc(COc3ccccc3)nn2c(C)c1Cl | 3.26% |  | 9.2 µM [rising, partial curve]
Cc1nc2ccccc2c(=O)n1N(c1ccccc1)c1ccccc1 | -3.05% |  | 
CSCc1c(C(=O)Nc2ccc3c(c2)OCO3)oc2ccccc12 | -26.3% |  | 5.62 µM [rising, single point]
COc1ccc(OCCSc2nnc3sc4ccccc4n23)cc1 | -16.8% |  | 
O=C(CNCC1CCCO1)N1CCN(S(=O)(=O)c2ccc3ccccc3c2)CC1 (centres undefined) | -14% | 0.092 µM [falling, full curve, poor fit] | 
COc1ccc(-n2c(C)cc(=O)c3c2CC(C)(C)CC3=O)cc1 | -45.8% | 29.1 µM [falling, partial curve, poor fit] | 0.58 µM [falling, full curve]

Structure (SMILES) | cell number change | AC50 [1] | AC50 [2]
CN(CC(=O)Nc1ccc(N2CCOCC2)cc1)C(=O)c1cc(S(=O)(=O)N(C)C)ccc1Cl | 13.8% |  | 11.6 µM [rising, partial curve]
Cc1c(Br)c([N+](=O)[O-])nn1CC(=O)NCc1cccs1 | -29.9% |  | 0.231 µM [falling, full curve, poor fit]
c1ccc2c(c1)OCC(c1csc3ncnc(N4CCCC4)c13)O2 (centres undefined) | 47.5% | 16.4 µM [rising, partial curve, poor fit] | 20.6 µM [rising, partial curve]
O=c1c(-c2cccc(Cl)c2)c[nH]n1-c1ccccc1 | 25.7% |  | 5.8 µM [rising, full curve]
O=C(Nc1ccccc1C(=O)N/N=C/c1ccccc1)c1ccco1 | -7.14% |  | 
CC(=O)C12CCCCC1CC1[C@@H]3CC(C)C4=CC(=O)CC[C@]4(C)C3CC[C@@]12C (some centres undefined) | -8.33% |  | 29.1 µM [rising, single point]
Cc1c(/N=C/c2ccco2)n(Cc2ccccc2)c2ccccc12 | -15.2% |  | 29.1 µM [falling, single point]
CCCC(=O)N1c2ccc(-c3csc(N)n3)cc2CC1C (centres undefined) | -11.7% |  | 
O=C(CN1CCCCCC1)NN(Cc1ccccc1)c1ccccc1 | 35.8% | 29.1 µM [rising, single point] | 
COc1cccc(NC(=O)N2CCC(NC(=O)C(Cc3cccc(C)c3)NC(C)=O)CC2)c1 (centres undefined) | 29.5% |  | 5.17 µM [falling, single point]
Cc1csc(NC(=O)CS(=O)(=O)Cc2ccccc2)n1 | -6.37% |  | 6.51 µM [falling, single point]
COc1cc(CNC(C)c2ccccc2)cc(Br)c1OCc1ccccc1 (centres undefined) | -52.9% | 18.4 µM [falling, single point] | 23.1 µM [falling, single point]
COc1ccc(NS(=O)(=O)c2cc(NC(=O)CCSc3ccccc3)ccc2OC)cc1 | 11.3% |  | 29.1 µM [rising, single point]
Cc1cc(Cl)ccc1NC(=O)/C=N/O | 15.3% |  | 4.11 µM [rising, single point]
CCCCOC(=O)n1c(SCC(=O)N(CC)CC)nc2ccccc21 | 275% | 5.8 µM [rising, partial curve] | 5.8 µM [rising, single point]
O=C(COc1ccccc1Cl)NC(=S)Nc1ccc(CN2CCOCC2)cc1 | 28.3% |  | 8.2 µM [rising, partial curve]
CC(C)n1c(SCC(=O)N2CCCCC2)nc2c1c(=O)n(C)c(=O)n2C |  |  | 11.6 µM [falling, partial curve]
CC(=O)c1c(C)[nH]c(C(=O)Nc2ccc(C)c(S(=O)(=O)N(C)C)c2)c1C | 2.85% | 6.51 µM [falling, single point] | 

3 entries drawn at random from the list so far:
Structure (SMILES) | cell number change | AC50 [1] | AC50 [2]
CC(=O)c1c(C)[nH]c(C(=O)Nc2ccc(C)c(S(=O)(=O)N(C)C)c2)c1C | 2.85% | 6.51 µM [falling, single point] | 
CCOC(=O)[C@H]1[C@H]2COc3ccccc3[C@@H]2N2C(=O)c3cc(OC)c(OC)cc3NC(=O)[C@@]12C | -52.3% | 29.1 µM [falling, partial curve, poor fit] | 36.6 µM [falling, partial curve, poor fit]
CCCCOC(=O)n1c(SCC(=O)N(CC)CC)nc2ccccc21 | 275% | 5.8 µM [rising, partial curve] | 5.8 µM [rising, single point]
